The text below walks through data of publication PMC7440846.

The exact form of at least one protein or probe is not confirmed. A weaker result is weaker than the reference pair of the same experiment. At least one verdict was read from the data and is not stated in words by the source. Tags and fusion partners may be left off the protein sequences shown.

This data set has as its target T1, LexA (UniProt P0A7C2).
T1 sequence (looked up, limits assumed): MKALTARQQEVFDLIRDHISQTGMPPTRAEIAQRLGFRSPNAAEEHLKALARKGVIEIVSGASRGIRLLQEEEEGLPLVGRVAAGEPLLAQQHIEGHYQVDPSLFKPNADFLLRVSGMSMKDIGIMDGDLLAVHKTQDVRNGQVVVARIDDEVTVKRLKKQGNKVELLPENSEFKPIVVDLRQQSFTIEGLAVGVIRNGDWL
Kind of data set: EMSA. The settings on record: 100 and 500 nM LexA, 50 nM probe, 10 mM Mg2+, 70 mM Tris-HCl pH 7.6, 150 mM NaCl, 10 mM MgCl2, 1 mM DTT, 5% glycerol, 10 ng/ul sonicated salmon sperm DNA, 5 min, room temperature, recombinant protein, label: 5' IRDye 700 on strand 1. In general terms: A gel shift assay detects complexes by their altered migration in electrophoresis.

As for “AATGCCTGCGGATACCGTATATATATACAGTATCAATTCTGGCT (double strand) [op-L (T>C in one half-site)]”, the binding result is “binds more weakly”.
For “AATGCCTGCGGATACCGTATATATATACGGTATCAATTCTGGCT (double strand) [op-LR (T>C in both half-sites)]” the value was “binds more weakly”; for “AATGCCTGCGGATACTGTATATATATACAGTATCAATTCTGGCT (double strand) [op+ / cons (consensus LexA operator)]”, “binds”.
